# Assays:
# [1] = general procedure: Fmoc solid-phase peptide synthesis; Rink-Amide polystyrene; details: whole synthesis, abs. 210 nm, scale 10 μmol
# [2] = general procedure: Fmoc solid-phase peptide synthesis; Rinkamide RAM; Rink-Amide polystyrene resin; details: for step yield: purification step; for oxidative folding yield / final HPLC purity: oxidative folding step; for final HPLC purity: UV210; for crude HPLC purity: UV210, scale 100 μmol
# [3] = whole synthesis, UPLC-MS, UV 210 nm, scale of the general procedure 100 μmol (P1-P3), 10 μmol (P4)
Substance,step yield [2],oxidative folding yield [2],final HPLC purity [2],crude HPLC purity ([2]; whole synthesis),also measured
H-ELROHLLRWGLTTPD—NH2,recovery of 85%,,,,"crude HPLC purity [1]: 34%; isolated mass ([2]; whole synthesis): 6.2 mg; crude mass ([2]; whole synthesis, scale 10 μmol): 20.3 mg; isolated yield ([2]; whole synthesis, scale of the general procedure 100 μmol (P1-P3), 10 μmol (P4)): 29%"
H-VRCPGAAHHADSLC-NH2 (cysteine pairing not given here),,>99%,53%,69%,
H-VRVPGCAHCADSLY-NH2 (cysteine pairing not given here),,>99%,56%,59%,
H-CRVPGDAHHADSLC-NH2 (cysteine pairing not given here),,>99%,67%,72%,
Bivalrudin,89%,,,,"crude LC-MS purity [2, 3]: 40%; final LC-MS purity [2, 3]: 90%"

# Reference: patent US12624064 (dated 2026)
